Results published in the odorant receptor screen of Mainland et al. (2015).
“And” between values parts separate entries of the source, which are not always exact repeats. Equal values may be shown once. This is one part of the list. Each value is one well over the wells without odorant, computed here; the data are noisy.

Key:
Assay in all cases: odorant receptor activation (CRE luciferase / Renilla) (fold of no-odor wells); higher = more activation
Conditions in all cases: 100 µM
OR10R2 clone 1400 = tested on: OR10R2 clone 1400
OR10T2 clone 1032 = tested on: OR10T2 clone 1032
[1] = tested on: OR10V1 Q101L/V117A/Q123W clone 1520
OR10W1 R263Q clone 1176 = tested on: OR10W1 R263Q clone 1176
OR10X1 clone 1368 = tested on: OR10X1 clone 1368
OR10X1 clone 1516 = tested on: OR10X1 clone 1516
OR10Z1 clone 1026 = tested on: OR10Z1 clone 1026
OR11A1 clone 1062 = tested on: OR11A1 clone 1062
OR11H1 clone 1558 = tested on: OR11H1 clone 1558
OR11H12 clone 1302 = tested on: OR11H12 clone 1302

Compound | odorant receptor activation (OR10R2 clone 1400) | odorant receptor activation (OR10T2 clone 1032) | odorant receptor activation [1] | odorant receptor activation (OR10W1 R263Q clone 1176) | odorant receptor activation (OR10X1 clone 1368) | odorant receptor activation (OR10X1 clone 1516) | odorant receptor activation (OR10Z1 clone 1026) | odorant receptor activation (OR11A1 clone 1062) | odorant receptor activation (OR11H1 clone 1558) | odorant receptor activation (OR11H12 clone 1302)
O=CCc1ccccc1 [phenyl acetaldehyde] | 1.43 | 1.21 | 1.25 | 1.06 | 1 | 1 | 0.784 | 1.33 | 1.8 | 1.03
C=C(C)C1CCC2=CC(=O)CC(C)C2(C)C1 (stereo unspecified) [amyl laurate] |  |  |  |  |  |  |  |  | 1.32 | 
C=CCc1ccc(O)c(OC)c1 [eugenol] | 1.14 and 1.39 | 1.54 and 1.48 | 1.54 and 1.01 and 1.4 | 2.2 and 1.47 | 1.47 and 1.23 | 2.04 and 1.09 and 1.54 | 1.86 and 1.5 | 0.861 and 1.63 | 1.03 | 2 and 1.4
CC(=O)c1ccccc1 [acetophenone] | 0.733 | 1.11 | 0.818 and 0.724 | 0.917 | 0.926 | 1.06 and 0.684 | 1.26 | 1.21 |  | 1.3
C=CC(C)(O)CCC=C(C)C (stereo unspecified) [linalool] | 1.2 | 1.2 | 1.13 | 1.15 | 1.04 | 0.87 | 1.11 | 1.37 | 0.713 | 1.32
CC(C)C(=O)O [isobutyric acid] | 0.837 | 0.914 | 0.791 and 0.7 | 0.956 | 1.09 | 1.44 and 0.99 | 0.762 | 0.795 | 0.709 | 1.15 and 0.681
COc1cc(C=O)ccc1O [vanillin] | 0.896 | 1.07 | 0.942 | 1.04 | 0.764 | 0.933 | 0.822 | 1.55 | 1.02 | 0.963
CC(=O)OC(C)(C)C1CC=C(C)CC1 (stereo unspecified) [terpinyl acetate] | 0.903 | 1.64 | 1.05 | 1.27 | 0.658 | 0.806 | 0.798 | 2.13 | 1.47 | 0.787
CCCCCCCC=O [octyl aldehyde] | 0.845 | 1.29 | 0.956 | 1.23 | 0.786 | 0.828 | 1.16 | 1.08 | 0.953 | 1.35
CCCCCCCC=CC=O [2-decenal] | 0.964 | 17.2 | 1.39 | 0.766 | 1.1 | 1.54 | 12.7 | 4.13 | 1.45 | 2.22
CC(C)CC(=O)O [isovaleric acid] | 0.937 | 1.17 | 0.964 | 1.13 | 1.1 | 0.868 | 1.05 | 1.08 | 0.804 | 0.937
CCCCCCC=O [heptaldehyde] | 0.975 and 0.847 | 1.23 and 1.11 |  |  | 1.04 and 0.947 |  | 1.13 and 0.869 | 1.47 and 1.81 | 0.692 | 0.64 and 1.33 and 0.867
CCCCCCOC(=O)CCC [hexyl butyrate] | 0.78 | 0.509 | 0.729 and 1.1 | 1.16 | 0.838 | 1.1 and 1.01 | 0.602 | 0.59 | 0.941 | 1.2 and 0.666
CC(=O)OC1CC2CCC1(C)C2(C)C (stereo unspecified) [isobornyl acetate] | 0.729 | 1.43 | 1.01 and 0.993 | 1.06 | 1.09 | 1.17 and 1.15 | 0.659 | 0.634 | 0.88 | 1.37 and 0.678
CC12C=CCC1C1CCC3=CC(=O)CCC3(C)C1CC2 (stereo unspecified) [androstadienone] | 0.896 | 1.15 | 0.776 and 1.25 | 0.863 | 1.02 | 1.18 and 1.31 | 0.909 | 2.36 |  | 1.52 and 0.752
CCCCCCCCC=O [nonyl aldehyde] | 1.01 | 0.998 | 0.973 | 1.17 | 0.997 | 0.912 | 0.953 | 1.27 | 0.772 | 1.03
O=C1CCCCC1 [Cyclohexanone] | 0.658 | 0.854 | 0.47 and 0.877 | 0.794 | 0.873 | 1.1 and 1.03 | 0.834 | 0.498 |  | 0.725
CC/C=C\CCO [cis-3-hexen-1-ol] | 0.147 | 0.87 | 0.995 | 0.998 | 0.202 | 1.33 | 1.05 | 0.78 | 0.89 | 0.897
C=CCSCC=C [diallyl sulfide] | 1.17 | 1.06 | 1.69 | 1.42 | 0.954 | 1.31 | 0.898 | 0.954 | 0.859 | 1.03
CC(C)(O)CCCC1=CCC(C=O)CC1 (stereo unspecified) [lyral] |  |  |  |  |  |  |  |  | 1.14 | 
CCCCCC(C)=O [2-heptanone] | 0.745 | 1.36 | 0.707 and 0.568 | 0.835 | 1.03 | 0.957 and 0.572 | 0.835 | 0.347 |  | 0.919
CCCCCCCCCCC=O [undecanal] | 0.941 | 0.712 | 1.11 | 0.849 | 0.673 | 1.16 | 0.822 | 1.29 | 1.51 | 0.998
CC(C)(C)c1ccc(CCC=O)cc1 [bourgeonal] | 0.129 | 0.768 | 0.903 | 0.76 | 0.198 | 1.77 | 0.821 | 0.77 |  | 0.776
CC12C=CCC1C1CCC3CC(=O)CCC3(C)C1CC2 (stereo unspecified) [androstenone] | 0.532 | 2.13 | 1.1 | 6.04 | 0.799 | 1.19 | 1.76 | 1.92 |  | 1.26
COC(=O)c1ccccc1 [methyl benzoate] | 0.702 | 1.55 | 0.545 and 1.26 | 1.05 | 1.13 | 1.13 and 0.935 | 1.26 | 0.754 |  | 0.941
CCCCCCCOC(C)=O [heptyl acetate] | 0.89 | 1.01 | 0.841 and 1.08 | 0.985 | 1.23 | 1.17 and 1.24 | 0.994 | 1.33 | 0.84 | 1.06 and 0.821
CCCC(=O)O [butyric acid] | 0.16 | 1.07 | 1.03 | 1.07 | 0.202 | 1.22 | 1.12 | 1.18 | 0.922 | 0.951
CC=Cc1ccc(O)c(OC)c1 [isoeugenol] | 1.53 | 1.89 | 0.972 and 2.71 | 1.7 | 1.58 | 1.2 and 2 | 1.55 | 0.901 | 0.644 | 1.18 and 1.21
CCCCO [1-butanol] | 0.587 | 3.27 | 0.987 | 1.01 | 0.663 | 1.58 | 3.15 | 3.31 | 1.27 | 1.22
CC1=NC(C)SC1C (stereo unspecified) | 0.819 | 0.819 | 0.947 and 1.02 | 0.942 | 0.931 | 1.19 and 0.972 | 0.659 | 1.92 |  | 1.16

Already shown: two of the compounds above.
Compound | odorant receptor activation (OR10R2 clone 1400) | odorant receptor activation (OR10T2 clone 1032) | odorant receptor activation [1] | odorant receptor activation (OR10W1 R263Q clone 1176) | odorant receptor activation (OR10X1 clone 1368) | odorant receptor activation (OR10X1 clone 1516) | odorant receptor activation (OR10Z1 clone 1026) | odorant receptor activation (OR11A1 clone 1062) | odorant receptor activation (OR11H1 clone 1558) | odorant receptor activation (OR11H12 clone 1302)
CCCCCCCCC=O [nonyl aldehyde] | 1.01 | 0.998 | 0.973 | 1.17 | 0.997 | 0.912 | 0.953 | 1.27 | 0.772 | 1.03
O=C1CCCCC1 [Cyclohexanone] | 0.658 | 0.854 | 0.47 and 0.877 | 0.794 | 0.873 | 1.1 and 1.03 | 0.834 | 0.498 |  | 0.725
